The chains are these.
B1: mix-and-match LL2 with chimeric light and humanized heavy (version 1) chains (antibody, IgG1, V domains shown)
VH: QVQLQQSGAEVKKPGSSVKVSCKASGYTFTSYWLHWVRQAPGQGLEWIGYINPRNDYTEYNQNFKDKATITADESTNTAYMELSSLRSEDTAFYFCARRDITTFYWGQGTTVTVSS
VL: DIQLTQSPSSLAVSAGENVTMSCKSSQSVLYSANHKNYLAWYQQKPGQSPKLLIYWASTRESGVPDRFTGSGSGTDFTLTISRVQVEDLAIYYCHQYLSSWTFGGGTKLEIKR
modifications: N-linked carbohydrate at the Asn-Val-Thr site, positions 18-20 of VK FR1
B2: mix-and-match LL2 with chimeric light and humanized heavy (version 2) chains (antibody, IgG1, V domains shown)
VH: B1 VH with Q5V
VL: B1 VL
modifications: N-linked carbohydrate at the Asn-Val-Thr site, positions 18-20 of VK FR1
B3: mix-and-match LL2 with a humanized light and chimeric heavy chain (antibody, IgG1, V domains shown)
VH: QVQLQESGAELSKPGASVKMSCKASGYTFTSYWLHWIKQRPGQGLEWIGYINPRNDYTEYNQNFKDKATLTADKSSSTAYMQLSSLTSEDSAVYYCARRDITTFYWGQGTTLTVSS
VL: DIQLTQSPSSLSASVGDRVTMSCKSSQSVLYSANHKNYLAWYQQKPGKAPKLLIYWASTRESGVPSRFSGSGSGTDFTFTISSLQPEDIATYYCHQYLSSWTFGGGTKVQIKR

Protein sequences, listed by entry. Tags and fused reporters are not part of them. Residues count along the entry.
UniProt P20273, residues 20-847: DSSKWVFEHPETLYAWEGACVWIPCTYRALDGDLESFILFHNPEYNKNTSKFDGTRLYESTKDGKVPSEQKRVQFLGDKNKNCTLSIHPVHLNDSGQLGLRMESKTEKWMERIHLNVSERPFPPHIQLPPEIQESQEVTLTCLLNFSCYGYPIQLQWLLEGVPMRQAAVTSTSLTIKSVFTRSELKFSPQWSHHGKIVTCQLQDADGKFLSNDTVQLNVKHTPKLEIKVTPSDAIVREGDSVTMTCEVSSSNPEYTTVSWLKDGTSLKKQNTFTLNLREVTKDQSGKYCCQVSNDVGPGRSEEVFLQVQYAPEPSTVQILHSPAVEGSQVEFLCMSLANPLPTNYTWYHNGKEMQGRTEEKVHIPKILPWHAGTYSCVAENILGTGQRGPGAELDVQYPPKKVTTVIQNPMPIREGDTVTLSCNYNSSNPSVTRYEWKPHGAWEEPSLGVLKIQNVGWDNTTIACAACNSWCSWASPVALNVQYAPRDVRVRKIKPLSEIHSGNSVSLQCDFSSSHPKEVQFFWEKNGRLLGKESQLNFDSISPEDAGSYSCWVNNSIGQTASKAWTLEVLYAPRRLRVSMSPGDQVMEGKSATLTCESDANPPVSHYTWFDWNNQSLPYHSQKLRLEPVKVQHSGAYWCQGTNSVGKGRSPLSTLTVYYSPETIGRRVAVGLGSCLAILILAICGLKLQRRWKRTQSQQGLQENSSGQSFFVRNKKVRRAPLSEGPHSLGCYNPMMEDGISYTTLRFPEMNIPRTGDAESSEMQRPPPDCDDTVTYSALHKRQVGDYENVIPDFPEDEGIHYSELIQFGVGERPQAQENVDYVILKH

Three molecules from patent US8771694 (IMMUNOMEDICS, dated 2014) can be followed below.

Positions count from the first letter of the chain named. No constants are given. Whether binding was seen depends on the method and setting. Some results given as binding are weak or reduced against the parent protein; the word gives no strength.

The target of this experiment is CD22 (LL2 antigen on the surface of Raji cells) (UniProt P20273). Description: competition flow cytometry on Raji cells, competitor mLL2 F(ab')2. Background: Flow cytometry measures light scatter and fluorescence of single cells or particles in a stream.
For the molecule B1, the binding result is on record as “binds”.

Take B2: the binding result is reported as “binds”.

B3: the binding result is recorded as “binds”.
